Results deposited as PubChem BioAssay AID504764 (Drosophila RNAi Screening Center, 2011).
The deposit covers about 22,000 reagents; shown is an unselected part of those with a known target gene and a result. Over the whole deposit, 403 (1.9%) were called active. 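Unnormalised raw counts per well; ratio z-scores behind the hit calls and whether each hit raises or lowers signal are not deposited.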 Names joined by + are all predicted targets of the reagent. Reagent sequences are not shown. The record does not give: the amount of reagent.

- Screen: 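Genes whose knock-down alters Notch-dependent transcription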 (primary screen)
- Cells: Drosophila Kc167 cells
- Knock-down reagent: long dsRNA against Drosophila genes
- Duration: about 5 days (4 days dsRNA, then 24 h after transfection)
- Conditions: transfection of constitutively active membrane-tethered Notch lacking the extracellular domain, read 24 h later
- Measurement: 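Light from a Notch-responsive E(spl)m3 luciferase reporter under active Notch, with control-promoter and no-Notch reporter wells to normalise; raw counts from paired wells a and b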
- Direction: induced reporter light, run 1, well a and induced reporter light, run 1, well b: higher = more light from the Notch target reporter with active Notch; control promoter light, run 1, well a and control promoter light, run 1, well b: higher = more light from the viral control promoter (cell number, transfection, viability); uninduced reporter light, run 1, well a: higher = more light from the Notch target reporter without active Notch
- Hit rule: 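Hit if the duplicate-averaged log2 ratio of induced to control-promoter light gives a plate-wise z beyond ±2, or induced to uninduced beyond ±1.8; weak-control or discordant-duplicate wells dropped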
- Calls: active = modifier hit (raised or lowered Notch signal); inactive = not a hit

Gene | DRSC id | induced reporter light, run 1, well a | induced reporter light, run 1, well b | control promoter light, run 1, well a | control promoter light, run 1, well b | uninduced reporter light, run 1, well a | Call
CG34269 | DRSC07884 | 1.91e5 | 2.19e5 | 2.28e5 | 2.35e5 | 16315 | inactive
LysD + LysC (retired record) | DRSC08674 | 1.29e5 | 1.74e5 | 2.05e5 | 1.36e5 | 6600 | inactive
Cubn2 | DRSC10561 | 1.80e5 | 1.80e5 | 2.65e5 | 1.57e5 | 8950 | inactive
CG11703 | DRSC14356 | 1.68e5 | 1.61e5 | 2.24e5 | 1.95e5 | 10955 | inactive
Kr-h1 | DRSC00908 | 86480 | 83895 | 90595 | 83575 | 6060 | inactive
Kr-h1 | DRSC03355 | 1.57e5 | 1.70e5 | 1.54e5 | 1.55e5 | 15040 | inactive
prc | DRSC11385 | 1.02e5 | 1.22e5 | 2.03e5 | 1.25e5 | 6580 | inactive
sphe | DRSC20203 | 1.45e5 | 1.53e5 | 1.27e5 | 75295 | 9055 | inactive
CG13060 | DRSC09943 | 1.78e5 | 1.42e5 | 2.01e5 | 2.29e5 | 6605 | inactive
CG32137 | DRSC10271 | 1.82e5 | 1.50e5 | 1.94e5 | 1.90e5 | 12805 | inactive
CG32137 | DRSC10272 | 2.01e5 | 1.81e5 | 1.68e5 | 1.33e5 | 20270 | inactive
FASN2 | DRSC00167 | 71690 | 66715 | 1.09e5 | 1.31e5 | 5370 | inactive
FASN2 | DRSC00610 | 1.31e5 | 1.65e5 | 1.49e5 | 1.85e5 | 13420 | inactive
MetRS-m | DRSC16443 | 1.46e5 | 1.22e5 | 1.04e5 | 91255 | 11240 | inactive
MetRS-m | DRSC16515 | 2.75e5 | 2.74e5 | 2.98e5 | 3.15e5 | 21755 | inactive
dind | DRSC16294 | 1.36e5 | 2.17e5 | 2.01e5 | 2.56e5 | 13900 | inactive
alphaTub67C | DRSC11321 | 1.71e5 | 1.31e5 | 2.26e5 | 1.95e5 | 11740 | inactive
kuk | DRSC15730 | 1.92e5 | 1.97e5 | 2.36e5 | 2.21e5 | 15080 | inactive
CG10959 | DRSC17769 | 2.26e5 | 2.09e5 | 3.07e5 | 3.37e5 | 14760 | inactive
ssp3 | DRSC02669 | 39555 | 35100 | 53450 | 41105 | 2345 | inactive
ssp3 | DRSC02670 | 82355 | 48650 | 56280 | 96850 | 5620 | inactive
PolrMT | DRSC00660 | 74680 | 95360 | 87990 | 90335 | 5635 | inactive
CG5089 | DRSC06914 | 1.20e5 | 1.03e5 | 2.13e5 | 2.79e5 | 9665 | inactive
al | DRSC00799 | 84485 | 83935 | 61995 | 34875 | 7900 | active
hkb | DRSC12377 | 1.24e5 | 93140 | 96575 | 73665 | 5765 | inactive
Nadk2 | DRSC07072 | 1.82e5 | 1.44e5 | 1.58e5 | 1.43e5 | 12835 | inactive
Gpdh2 | DRSC04346 | 2.05e5 | 1.75e5 | 1.71e5 | 1.77e5 | 13288 | inactive
CG6788 + CR32496 | DRSC22043 | – | – | – | – | – | inactive
NdufA3 | DRSC18431 | 72690 | 66165 | 1.06e5 | 93975 | 5785 | inactive
ND-75 | DRSC18686 | 1.42e5 | 1.30e5 | 2.60e5 | 2.12e5 | 8950 | inactive
CG11249 | DRSC11645 | 1.38e5 | 1.41e5 | 1.25e5 | 1.10e5 | 7375 | inactive
CG33460 | DRSC05570 | 1.52e5 | 1.91e5 | 2.07e5 | 2.81e5 | 17520 | inactive
CG7568 | DRSC16259 | 1.81e5 | 1.75e5 | 2.58e5 | 2.15e5 | 15165 | inactive
CG12170 | DRSC12199 | 1.21e5 | 1.54e5 | 84185 | 83395 | 10835 | inactive

6 consecutive reagents already listed:
Gene | DRSC id | induced reporter light, run 1, well a | induced reporter light, run 1, well b | control promoter light, run 1, well a | control promoter light, run 1, well b | uninduced reporter light, run 1, well a | Call
Kr-h1 | DRSC03355 | 1.57e5 | 1.70e5 | 1.54e5 | 1.55e5 | 15040 | inactive
prc | DRSC11385 | 1.02e5 | 1.22e5 | 2.03e5 | 1.25e5 | 6580 | inactive
sphe | DRSC20203 | 1.45e5 | 1.53e5 | 1.27e5 | 75295 | 9055 | inactive
CG13060 | DRSC09943 | 1.78e5 | 1.42e5 | 2.01e5 | 2.29e5 | 6605 | inactive
CG32137 | DRSC10271 | 1.82e5 | 1.50e5 | 1.94e5 | 1.90e5 | 12805 | inactive
CG32137 | DRSC10272 | 2.01e5 | 1.81e5 | 1.68e5 | 1.33e5 | 20270 | inactive
